Assay results published in patent US20120183553A1.
These are yes or no findings as the source states them, for the method shown. For part of these data: In cells and extracts the contact can be indirect. Some entries that bind do so weakly or less than the wild type. Tags and fused reporters may be left off the sequences shown.

Protein sequences, listed by entry. Tags and fused reporters are not part of them.
UniProt Q9NQB0: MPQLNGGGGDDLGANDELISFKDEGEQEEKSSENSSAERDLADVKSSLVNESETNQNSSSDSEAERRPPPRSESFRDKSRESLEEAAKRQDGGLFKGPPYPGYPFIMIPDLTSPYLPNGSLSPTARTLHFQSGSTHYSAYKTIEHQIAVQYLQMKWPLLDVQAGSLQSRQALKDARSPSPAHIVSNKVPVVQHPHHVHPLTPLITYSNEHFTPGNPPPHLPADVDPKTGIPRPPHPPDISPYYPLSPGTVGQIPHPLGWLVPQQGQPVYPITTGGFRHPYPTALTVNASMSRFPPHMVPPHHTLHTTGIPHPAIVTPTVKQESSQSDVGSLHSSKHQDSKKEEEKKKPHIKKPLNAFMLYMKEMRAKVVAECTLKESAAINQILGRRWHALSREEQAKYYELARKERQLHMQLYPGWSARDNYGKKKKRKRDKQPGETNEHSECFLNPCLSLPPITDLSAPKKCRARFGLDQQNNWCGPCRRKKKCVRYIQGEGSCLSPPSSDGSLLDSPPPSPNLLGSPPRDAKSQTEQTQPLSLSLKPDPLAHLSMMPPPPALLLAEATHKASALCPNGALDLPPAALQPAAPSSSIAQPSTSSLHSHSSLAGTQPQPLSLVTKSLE

Key:
TCF4 [1] = target: TCF4 (UniProt Q9NQB0); test: co-immunoprecipitation in the presence of 20 µg/ml ethidium bromide
TCF4 [2] = target: TCF4 (UniProt Q9NQB0); test: co-immunoprecipitation from HCT116 cell extracts with anti-TCF4-coated beads, western blot
TCF4 [3] = target: TCF4 (UniProt Q9NQB0); test: TCF4 immunoprecipitation from HCT116 lysates after transfection with increasing Myc-Hom-1, western blot

Measured: binding

B1: Myc-tagged Hom-1 (protein, not shown: small tags and cut ends)
chain: MRLSSSPPRGPQQLSSFGSVDWLSQSSCSGPTHTPRPADFSLGSLPGPGQTSGAREPPQAVSIKEAAGSSNLPAPERTMAGLSKEPNTLRAPRVRTAFTMEQVRTLEGVFQHHQYLSPLERKRLAREMQLSEVQIKTWFQNRRMKHKRQMQDPQLHSPFSGSLHAPPAFYSTSSGLANGLQLLCPWAPLSGPQALMLPPGSFWGLCQVAQEALASAGASCCGQPLASHPPTPGRPSLGPALSTGPRGLCAMPQTGDAF
binds: TCF4 [1] | TCF4 [2] | TCF4 [3]
